Laboratory results: PubChem BioAssay AID1159584 (Peter MacCallum Cancer Centre, 2016)

Aim: 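Genes that CDH1-null MCF10A cells selectively depend on to survive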 (primary screen)
System: human MCF10A breast epithelial cells, parental and CDH1-null
Reagent: siRNA against human genes
Read-out: 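Cell viability by CellTiter-Glo ATP luminescence, each line scaled to the mean of mock wells across plates, then CDH1-null over parental ratio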
Direction: CDH1-null / parental viability ratio: higher = CDH1-null cells survive relatively better than parental
This is one part, drawn at random, of about 18,000 reagents. Not all columns of the deposit are shown. The record does not give: the amount of reagent, the time to read-out.

{"gene": "RHOC", "CDH1-null / parental viability ratio": 0.68}
{"gene": "TNFRSF25", "CDH1-null / parental viability ratio": 0.9}
{"gene": "FABP4", "CDH1-null / parental viability ratio": 0.75}
{"gene": "H2BC11", "CDH1-null / parental viability ratio": 1.03}
{"gene": "MMP3", "CDH1-null / parental viability ratio": 1}
{"gene": "SERPINI1", "CDH1-null / parental viability ratio": 1.33}
{"gene": "JSRP1", "CDH1-null / parental viability ratio": 1.08}
{"gene": "LTB4R2", "CDH1-null / parental viability ratio": 0.89}
{"gene": "ST6GAL1", "CDH1-null / parental viability ratio": 1.21}
{"gene": "FRS3", "CDH1-null / parental viability ratio": 1.21}
{"gene": "DUSP18", "CDH1-null / parental viability ratio": 1.43}
{"gene": "TMEM70", "CDH1-null / parental viability ratio": 1.01}
{"gene": "JUNB", "CDH1-null / parental viability ratio": 1.12}
{"gene": "NCDN", "CDH1-null / parental viability ratio": 0.86}

2 consecutive records from above:
{"gene": "TMEM70", "CDH1-null / parental viability ratio": 1.01}
{"gene": "JUNB", "CDH1-null / parental viability ratio": 1.12}
